The reference is the same well before dosing, and untreated signal decays as well.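 Fibroblast labels denote human fibroblasts, mainly primary ones from uterus (C12385, HUF), lung (H6013), bone (Hs27A), adrenal (HADF) and skin (WS1), plus mammary HMF and breast cancer-associated Hs343T. Cancer cells are basal-like or mesenchymal-like triple-negative breast cancer lines. A hit is a response shift exceeding 3x replicate standard deviation. The tissue of the other fibroblasts is not given here.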 Numbered stars: 1 amine (or outer) side, 2 acyl side, 3 side chain; on linkers, the order of the positions; unused ones are H or OH. Bridge positions count the residues as written; N and C are the ends. Square brackets hold non-standard residues; d marks the D form. Peptide text beside a SMILES is read from it. I, II: the chains in the order shown. Actinocin(9to1) = Cc1c2oc3c(C)ccc(C(=O)[*:1])c3nc-2c(C(=O)[*:2])c(N)c1=O; NMeV = CN[C@H](C(=O)O)C(C)C; Sar = CNCC(=O)O
Test system: Hs578T
Experiment: relative JC-1 red fluorescence (viability) vs pre-drug, coculture with fibroblast (fraction); higher = more viable cancer cells
Protocol: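 JC-1 labelled TNBC cells cocultured 1:1 (1,500 cells each) with CellTrace Violet stained primary or stromal fibroblasts in 384-well plates in FluoroBrite medium, treated with one of 42 anticancer drugs at 0.1, 1, 10 or 100 uM. JC-1 red fluorescence (mitochondrial integrity in cancer cells only) was read by plate reader every 8 h for 72 h. Values are normalised to each well's pre-drug value. The stock of one drug was tenfold lower, so its dose labels may be too high.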

Cc1c2oc3c(C)ccc(C(=O)N[C@@H]4C(=O)N[C@H](C(C)C)C(=O)N5CCC[C@H]5C(=O)N(C)CC(=O)N(C)[C@@H](C(C)C)C(=O)O[C@@H]4C)c3nc-2c(C(=O)N[C@@H]2C(=O)N[C@H](C(C)C)C(=O)N3CCC[C@H]3C(=O)N(C)CC(=O)N(C)[C@@H](C(C)C)C(=O)O[C@@H]2C)c(N)c1=O [Dactinomycin] (I: T[dV]P[Sar][NMeV] / II: T[dV]P[Sar][NMeV]; ester I:1-I:C, II:1-II:C; linker I:N-II:N via Actinocin(9to1))
relative JC-1 red fluorescence
Settings	8 h	16 h	24 h	32 h	40 h	48 h	56 h	64 h	72 h
0.1 µM	0.8586	0.791	0.759	0.737	0.681	0.636	0.633	0.608	0.633
1 µM	0.893	0.76	0.66562	0.6235	0.5564	0.527	0.532	0.516	0.521

relative JC-1 red fluorescence
Settings	8 h	16 h	24 h	32 h	40 h	48 h	56 h	64 h	72 h
0.1 µM, coculture fibroblast: C12385	0.82	0.747	0.684	0.596	0.533	0.496	0.468	0.449	0.439
0.1 µM, coculture fibroblast: H6013	0.8426	0.8202	0.781	0.749	0.712	0.707	0.707	0.713	0.697
0.1 µM, coculture fibroblast: H6019	0.78	0.7003	0.675	0.59	0.561	0.538	0.515	0.507	0.493
0.1 µM, coculture fibroblast: H6076	0.903	0.813	0.734	0.701	0.634	0.597	0.536	0.524	0.517
0.1 µM, coculture fibroblast: H6231	0.8629	0.785	0.717	0.673	0.606	0.565	0.529	0.519	0.509
0.1 µM, coculture fibroblast: HADF	0.829	0.772	0.716	0.668	0.617	0.608	0.569	0.571	0.553
0.1 µM, coculture fibroblast: HCFa	0.805	0.7559	0.714	0.667	0.629	0.648	0.642	0.647	0.637
0.1 µM, coculture fibroblast: HCPF	0.904	0.8204	0.7671	0.733	0.678	0.652	0.634	0.607	0.592
0.1 µM, coculture fibroblast: HHSteC	0.834	0.785	0.752	0.731	0.699	0.691	0.697	0.694	0.686
0.1 µM, coculture fibroblast: HMF	0.841	0.7787	0.746	0.729	0.674	0.634	0.594	0.581	0.582
0.1 µM, coculture fibroblast: HPFa	0.856	0.7979	0.74	0.69236	0.653	0.6272	0.606	0.6098	0.5935
0.1 µM, coculture fibroblast: HUF	0.8091	0.7009	0.694	0.595	0.534	0.502	0.482	0.483	0.484
0.1 µM, coculture fibroblast: Hs27A	0.879	0.855	0.828	0.7983	0.753	0.7473	0.73727	0.738	0.696
0.1 µM, coculture fibroblast: Hs343T	0.868	0.7701	0.72	0.696	0.626	0.582	0.538	0.514	0.522
0.1 µM, coculture fibroblast: WS1	0.806	0.714	0.687	0.579	0.516	0.503	0.4752	0.4812	0.487
1 µM, coculture fibroblast: C12385	0.79081	0.692	0.623	0.5412	0.48	0.445	0.413	0.4	0.396
1 µM, coculture fibroblast: H6013	0.832	0.756	0.716	0.687	0.655	0.637	0.605	0.593	0.579
1 µM, coculture fibroblast: H6019	0.7868	0.699	0.691	0.598	0.566	0.553	0.535	0.531	0.517
1 µM, coculture fibroblast: H6076	0.874	0.767	0.689	0.662	0.602	0.579	0.546	0.542	0.54
1 µM, coculture fibroblast: H6231	0.875	0.774	0.718	0.702	0.639	0.607	0.571	0.564	0.568
1 µM, coculture fibroblast: HADF	0.808	0.746	0.698	0.661	0.627	0.602	0.573	0.564	0.548
1 µM, coculture fibroblast: HCFa	0.825	0.727	0.662	0.604	0.549	0.532	0.499	0.491	0.457
1 µM, coculture fibroblast: HCPF	0.899	0.808	0.7656	0.736	0.687	0.659	0.636	0.595	0.596
1 µM, coculture fibroblast: HHSteC	0.846	0.774	0.723	0.69	0.667	0.66	0.673	0.664	0.651
1 µM, coculture fibroblast: HMF	0.854	0.744	0.686	0.67	0.613	0.6	0.568	0.545	0.5288
1 µM, coculture fibroblast: HPFa	0.834	0.743	0.71	0.675	0.644	0.637	0.615	0.607	0.573
1 µM, coculture fibroblast: HUF	0.8465	0.695	0.684	0.588	0.541	0.517	0.49	0.478	0.463
1 µM, coculture fibroblast: Hs27A	0.841	0.7556	0.706	0.661	0.594	0.5866	0.554	0.543	0.497
1 µM, coculture fibroblast: Hs343T	0.865	0.745	0.673	0.62	0.56	0.533	0.505	0.495	0.495
1 µM, coculture fibroblast: WS1	0.756	0.681	0.646	0.566	0.517	0.504	0.488	0.491	0.495

Source: the supplement of paper PMC6078165
